# Publication PMC7819943, “Rice protein-binding microarrays: a tool to detect cis-acting elements near promoter regions in rice”
# The list shows a part of the results.
# Molecular target: T1, OsSMF1 (Oryza sativa, UniProt Q6ZLB0 1-436)
# T1 sequence: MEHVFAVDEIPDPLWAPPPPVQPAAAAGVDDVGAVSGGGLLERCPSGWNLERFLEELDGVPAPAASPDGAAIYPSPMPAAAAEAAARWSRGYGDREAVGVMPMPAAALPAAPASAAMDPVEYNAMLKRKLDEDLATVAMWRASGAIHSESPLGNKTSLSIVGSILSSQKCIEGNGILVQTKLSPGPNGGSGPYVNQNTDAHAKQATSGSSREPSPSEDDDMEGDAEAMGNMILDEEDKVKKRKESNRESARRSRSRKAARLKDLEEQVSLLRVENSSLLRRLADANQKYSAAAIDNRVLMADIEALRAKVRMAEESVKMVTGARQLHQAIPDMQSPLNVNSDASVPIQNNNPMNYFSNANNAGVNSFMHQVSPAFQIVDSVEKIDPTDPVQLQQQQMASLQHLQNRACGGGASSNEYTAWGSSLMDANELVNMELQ
# Experiment: protein-binding microarray (RPBM); PBS, 2% BSA, 51.3 ng/ul salmon testes DNA, 50 uM zinc acetate, 200 nM TF, 25 C, 1 h; high values mean tight binding
# Conditions: protein: recombinant; tags: N-terminal polyhistidine and DsRed monomer fusion (pET32a); chain copies: 2; label: CyDye5-dUTP incorporated in the synthesized complementary strand; 3' TTTTT single-stranded linker to array surface; dsDNA, one strand shown
# Procedure, shortened: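 In PBS with 2% BSA, salmon testes DNA and 50 µM zinc acetate, 200 nM protein was incubated on a custom Agilent array at 25 °C for 1 h and then washed off. The array had been made double-stranded by primer extension with Cy5-dUTP and blocked with 2% BSA. The proteins were transcription factors fused N-terminally to polyhistidine and DsRed, expressed in E. coli BL21-CodonPlus and purified on Ni–NTA. The binding signal is per-feature fluorescence intensity (arbitrary units) from an Axon 4000B scanner.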
row,Sequence,binding signal
1,CACGTTCGCCGTAACCACGTCAGGCCGCCTCTCCTCAGCGCGGAGTCACCTAGTGCAG,11800 fluorescence intensity (a.u.)
2,AGTAACCAAACCAGATAGTTAGAAAATCCTGCAACTCTGCCGGAGTCACCTAGTGCAG,7700 fluorescence intensity (a.u.)
3,ATATGTATGTATATATATAGATACGTATATGTGTATATATCGGAGTCACCTAGTGCAG,3570 fluorescence intensity (a.u.)
4,GAACACGGCCACGGTGGTGACCATGATGGCACCCGGCAACCGGAGTCACCTAGTGCAG,3310 fluorescence intensity (a.u.)
5,TGCGGATCGAGCCAAAAGACACTTTGCTCCAGTCACGAAGCGGAGTCACCTAGTGCAG,3320 fluorescence intensity (a.u.)
6,CCCCACCGTCTCATCCCAGCTCAGCTCAGCTCTGCCTCCGCGGAGTCACCTAGTGCAG,3540 fluorescence intensity (a.u.)
7,ACCATCCGAGCTGTCAAGATCCGACGTGGGTTGTGAAGGCCGGAGTCACCTAGTGCAG,8700 fluorescence intensity (a.u.)
8,CTAGCAACGCGCGATTCCCGCACTGCCGCGGCATCATCTGCGGAGTCACCTAGTGCAG,3460 fluorescence intensity (a.u.)
9,AGAGGAAGTTGACAACATGTCACGCGTCAGCGACACGATGCGGAGTCACCTAGTGCAG,5240 fluorescence intensity (a.u.)
10,TTTCTCACCTACTACTTTCGCTGGCCGGTTATACGAAACACGGAGTCACCTAGTGCAG,3510 fluorescence intensity (a.u.)
11,GCTGTGAGCTTGTGACTACTATTTGTCATTGTTTTAAAACCGGAGTCACCTAGTGCAG,3670 fluorescence intensity (a.u.)
12,TAGTCAATGAAGCCACATAGGCACCACATCAACCAAAACCCGGAGTCACCTAGTGCAG,6580 fluorescence intensity (a.u.)
13,AGAGAGAGAGAGAGAGGATCTAATAGTCCGTCCGCGTTGGCGGAGTCACCTAGTGCAG,3610 fluorescence intensity (a.u.)
14,CCTACTCCCAAACAATCACGCTGACTCATGCAACCTCCATCGGAGTCACCTAGTGCAG,14400 fluorescence intensity (a.u.)
15,CAGCAACGCTTATTCAGTAGTATCGTGCTGTACTGCTGTCCGGAGTCACCTAGTGCAG,3630 fluorescence intensity (a.u.)
16,CCCCACCAGTATAGAAGTGTTTAGTCACACTGAAGTTTGGCGGAGTCACCTAGTGCAG,3170 fluorescence intensity (a.u.)
17,CTCCTCCTCCCGCCGCCGCGTCCTCTACGTCGCGGCCGCCCGGAGTCACCTAGTGCAG,3860 fluorescence intensity (a.u.)
18,TCTAGAGGAAGGAAGAGTGACGCTGCAGCGGTGTGCCTTACGGAGTCACCTAGTGCAG,5730 fluorescence intensity (a.u.)
19,ACACGTAAAAGCTTTACACGTCGCTATGTTAGAACAGAGTCGGAGTCACCTAGTGCAG,4590 fluorescence intensity (a.u.)
20,AGCCTTACCCAGCAAATTTCCCGCCTTCGTCACCGGGAGACGGAGTCACCTAGTGCAG,3250 fluorescence intensity (a.u.)
21,TCACATCCACATCATCATGGTCTAACAGAATCCATCCAGACGGAGTCACCTAGTGCAG,7590 fluorescence intensity (a.u.)

# No new results follow: entries from further up.
row,Sequence,binding signal
11,GCTGTGAGCTTGTGACTACTATTTGTCATTGTTTTAAAACCGGAGTCACCTAGTGCAG,3670 fluorescence intensity (a.u.)
12,TAGTCAATGAAGCCACATAGGCACCACATCAACCAAAACCCGGAGTCACCTAGTGCAG,6580 fluorescence intensity (a.u.)

# The list goes on.

row,Sequence,binding signal
1,AGGAGCGGGGAGAGTGTCGCGGTGTTGTCAGGGTGAGGGGCGGAGTCACCTAGTGCAG,3580 fluorescence intensity (a.u.)
2,AGAACACCGCCGAGGCCACGTACGCGTTGGATTCGTCGTCCGGAGTCACCTAGTGCAG,10100 fluorescence intensity (a.u.)
3,GCCAATTACAAATTCAACACCTAAATTTAAGCAAACACATCGGAGTCACCTAGTGCAG,3680 fluorescence intensity (a.u.)
4,TCTCTTCTCTTCTTCCGCGACACGTCTTCGCCGCCGCCGCCGGAGTCACCTAGTGCAG,6770 fluorescence intensity (a.u.)
5,GACGTGCGACGCGCCACGTCCGTCTTGACGTCGCAAGACCCGGAGTCACCTAGTGCAG,7660 fluorescence intensity (a.u.)
6,AGGATTAGGAAAGACCCACAGGATCTCATCATCTACACCACGGAGTCACCTAGTGCAG,12000 fluorescence intensity (a.u.)
7,CGCAAACCATGGTGGCTTGCTCCCCGCATTGGACACCGCCCGGAGTCACCTAGTGCAG,25800 fluorescence intensity (a.u.)
8,CTCGCGTCGCCACGCAACTTAATTAATTTAGCCCCTAATTCGGAGTCACCTAGTGCAG,3640 fluorescence intensity (a.u.)
9,TGTGTTCCTTGGTTACTTGGAAAATGGTAACCCAGTTGCTCGGAGTCACCTAGTGCAG,4720 fluorescence intensity (a.u.)
10,GCTCTCGCTGACGCTGCCGCTCCGCCTGCCTCCGCCCGCGCGGAGTCACCTAGTGCAG,3900 fluorescence intensity (a.u.)
11,CGGCGACTTCACACGCGGCAGGCAATCTTCAGGCGGTCAGCGGAGTCACCTAGTGCAG,3730 fluorescence intensity (a.u.)
12,CTGACATATGTCAGCATATATACTCACTAACCTATCATAGCGGAGTCACCTAGTGCAG,3350 fluorescence intensity (a.u.)
13,AGCAAATGATGGGCTTTCATGGCTGCTTCCATGGACGTGGCGGAGTCACCTAGTGCAG,3990 fluorescence intensity (a.u.)
14,TTGCTCGTGTCTCTGTCCGGATATGGGCCTCACGTGGCGGCGGAGTCACCTAGTGCAG,5260 fluorescence intensity (a.u.)
15,TATACAAGTCAGCTGCTGCTCGATCTTGTCATGAGAGCCCCGGAGTCACCTAGTGCAG,5140 fluorescence intensity (a.u.)
16,ATTCTAAGTCCCTGTCACATCGGATGTTTGGCACTAATTTCGGAGTCACCTAGTGCAG,4220 fluorescence intensity (a.u.)
17,TGTGATTGTATTGGTTACTAGAGTAGTATTTAGTAGAGATCGGAGTCACCTAGTGCAG,42200 fluorescence intensity (a.u.)
18,GGATGGCCATCGGGGTAGAAGAGATGTGATGGGTTGACTCCGGAGTCACCTAGTGCAG,3240 fluorescence intensity (a.u.)
19,GTAATGCCACGTAGGCGCCACATCGGATAAAGATCCGGTCCGGAGTCACCTAGTGCAG,24700 fluorescence intensity (a.u.)
20,CTTGTGGCCGGCGCAGCCGCCGCACCCCTCCGACGTGTTCCGGAGTCACCTAGTGCAG,5380 fluorescence intensity (a.u.)
21,CGCGCGGCTGACGGAGATCGAGAGCCGCGTCGTCGCCATGCGGAGTCACCTAGTGCAG,3760 fluorescence intensity (a.u.)
